Data from PubChem BioAssay AID493014 (National Center for Advancing Translational Sciences (NCATS), 2011).
Screen size: about 340,000 compounds; about 170 (0.05%) were called active. The inconclusive results got no clear call from the source; some entries with a clear call stand among them for comparison. Calls come from the whole dose curve; as a rule, active = well fitted inhibition curve with a large enough effect in the signal ratio, with a control signal flat (not every such curve was filed as active); inconclusive = small, poorly fitted or top-dose-only effect, or effect the other way, or a change in a side signal; inactive = flat fitted curve, though single readings scatter; the % refers to the signal ratio. A potency beside an inconclusive call is a rough fit, not a confirmed value.

Test: qHTS Assay to Find Inhibitors of Chronic Active B-Cell Receptor Signaling;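 for activity change, negative = inhibition: plate controls were basal doxycycline-induced cells for no effect and cells given 10 µM MG132 for full effect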
Conditions: ABC-DLBCL IkBa-CBG/CBR reporter, luminescence ratio (green luciferase fused to IkBa over red control in TMD8 lymphoma cells), 4 h; activity change, negative = inhibition: at 46.1 µM (top of the series) unless noted
Excerpt: NIH Molecular Libraries Probe Production Network [MLPCN] NIH Chemical Genomics Center [NCGC] MLPCN Grant: 1 R03 DA031086-01A1 PI Name: Dr. R. Eric Davis NCGC Assay Overview: Diffuse large B-cell lymphoma (DLBCL) is the most common category of non-Hodgkin lymphoma, with ~20,000 new cases per year in the United States. DLBCL should be regarded as a collection of different neoplasms. Microarray gene expression analysis has defined two principal types of DLBCL, named for their similarity to normal B cell stages or activation states: a germinal center B-cell (GCB) type, and an activated B-cell (ABC) type. In ABC-DLBCL, a constitutive high-level activity of the NF-kappaB family of transcription factors has been observed (1) and NF-kappaB target genes are more highly expressed in ABC primary tumors than in GCB tumors. Functional studies have shown a constitutive high-level activity of the IkappaB (inhibitor of kappa-B) kinase (IKK) complex. […] Further analysis of DLBCL primary tumors for NF-kappaB target gene expression imply that although CARD11 is required for constitutive IKK activity in all ABC-DLBCL lines, mutations in CARD11 may be the root cause of IKK activation only in lines or tumors with such mutations. In other words, CARD11 mutations may explain NF-kappaB activation in only 10% of ABC-DLBCL cases. […] This process has been termed 'chronic active BCR signaling' (CABS). The goal of this screen is to find small-molecule inhibitors of the CABS pathway found in ABC-DLBCL lines using a cell-based assay that measures IkappaBalpa stability, which has already been extensively validated in the OCI-Ly3 line (PubChem AID:445; REF: 4). […] The assay uses green (CBG68) and red (CBR) emitting beetle luciferases [Chroma-GloTM developed by Promega Corp.] where the green luciferase is fused to IkappaBalpha and the red luciferase is present in its native state. Both luciferase genes are stably present in the TMD8 human ABC DLBCL cell line, but their expression is under the control of tetracycline-inducible promoters. Following the addition of doxycycline to induce expression of the luciferases, the green luminescence in control cultures rises only slowly because the CBG fusion partner IkappaBalpha is targeted by IKK activity for rapid degradation. In contrast, green luminescence rises rapidly in the presence of proteasome inhibitors or IKK inhibitors. The rise in red luminescence of CBR is not affected by proteasome or IKK inhibitors, and serves as normalization for cell number and nonspecific effects. Compounds were screened as a concentration-titration series that ranged from 46 uM to 3 nM.
NCGC Assay Protocol Summary: Cells were seeded in 1536-well plates at 5000 cells/4uL in IMDM medium containing 0.5% FBS, w/o phenol red, 1% penicillin/streptomycin. Then, 23 nL of compounds or DMSO were delivered to each well using a pin tool. One uL 20ng/ml doxycycline was then dispensed into white solid 1536-well plates and the plates were incubated at 37C/5% C02 in a cell incubator for 4 hrs. Then 4 uL luminescent substrate mix (in-house prepared: 150 mM Tris-Cl, pH 7.6, 3 mM MgCl2, 1% Triton X-100, 5 mM DTT, 0.2 mM CoA, 0.15 mM ATP, 5 mM D-luciferin, final concentrations) was added to each well. The plate was incubated at r.t. for 10-15 min. The plates were measured on a ViewLux plate reader for green luminescence (540/20 nm filter) and red luminescence (618/8 nm filter). The green and red luminescent signals were corrected for red and green luminescence filter overlap using previously determined filter calibration constants (determined using the procedure outlined in the Promega Technical Manual; REF 4). The %Activity was determined from the ratio of corrected green/red luminescent values. MG132 were used as control. […] Red luminescent %Activity was normalized to the difference between red luminesence in basal cells (0%Activity) and zero luminescence (-100% Activity). […]
Potency is the fitted concentration of half-maximal effect.

Structure (SMILES) | activity change, negative = inhibition | Potency
CC(C)(C)n1nnnc1C(c1cccs1)N(Cc1cccnc1)Cc1ccccc1Cl (centres undefined) | inconclusive: 4.07% | 
O=C(NCc1ccccc1F)c1cccc(S(=O)(=O)NCc2ccccc2)c1 | inactive | 
COc1ccccc1N(Cc1ccccc1)S(=O)(=O)c1cccc(C(=O)Nc2ncccc2C)c1 | inactive | 
O=C(COC(=O)c1ccc(S(=O)(=O)NCc2ccco2)cc1)NC1CCCCCC1 | inconclusive: 19.4% | 
O=C(O)C1CC(=O)n2c(nc3ccccc32)S1 (centres undefined) |  | inconclusive: 5.17 µM [rising, full curve, poor fit]
Brc1ccc(CSc2nnc(-c3cnccn3)n2Cc2ccco2)cc1 | inconclusive: -8.43% | 
Cc1ccc(NC(=O)c2cc(C(C)(C)C)nn2Cc2ccccc2)cc1 | inconclusive: 6.69% | 
CC(C)NC(=O)c1ccc(CN2CCC(Cc3ccccc3)CC2)cc1 | inactive | 
Cn1nnnc1Sc1ncnc2scc(Br)c12 | inconclusive: -6.11% | 
COc1ccc(N2C(=O)CN(Cc3cc(OC)c(OC)c(OC)c3)C2=S)cc1 |  | inconclusive: 10 µM [falling, partial curve, poor fit]
CC(=O)c1ccc(S(=O)(=O)Nc2cccc(-c3ccc(N4CCOCC4)nn3)c2)cc1 | inconclusive: -24.3% | 
CCN(CC)c1ccc(NC(=O)C(C)C)cc1 | inconclusive: 0.229% | 
CCOc1ccc(C(=O)NCc2ccc3c(c2)OCO3)cc1OCC | inconclusive: 5.64% | 
Cn1c(=O)cc(OCC(=O)N2CCC(N3CCCCC3)CC2)c2ccccc21 | inconclusive: 28.9% | 
COc1ccc(NS(=O)(=O)c2ccc3oc4ccccc4c3c2)cn1 | inactive | 
Cc1ccc(Nc2nc(N)nc(CN3CCN(c4ccccc4F)CC3)n2)cc1 | inactive | 
Cc1ccc(C(=O)n2c(N)nc3ccccc32)cc1 |  | inconclusive: 1.58 µM [falling, partial curve, poor fit]
OCCCNc1c2c(nc3cc(-c4ccc(Cl)cc4)nn13)CCC2 | inconclusive: 2.72% | 
CN(C(=O)COC(=O)CSc1ccc([N+](=O)[O-])cc1)c1ccccc1 | inconclusive: -18.6% | 
CCN(Cc1ccccc1)S(=O)(=O)c1ccc(C(=O)N(CCCN(C)C)c2nc3cc4c(cc3s2)OCCO4)cc1 | inactive | 
Cc1ccc(-c2cc(C(=O)Nc3ccc(S(=O)(=O)Nc4ncccn4)cc3)[nH]n2)c(O)c1C | inactive | 
Clc1ccc(Cn2ncc3c(N4CCCCC4)ncnc32)cc1 | inactive | 
CCN1CCN(C(=O)c2cc3c(=O)n(C)c4ccccc4c3n2C)CC1 | inactive | 
O=c1[nH]c2ccc(NC(=S)Nc3ccc(Cl)cc3)cc2[nH]1 |  | inconclusive: 0.58 µM [falling, partial curve]

A different layout for part of the listing above.

| Structure (SMILES) | activity change, negative = inhibition | Potency |
| --- | --- | --- |
| CC(C)(C)n1nnnc1C(c1cccs1)N(Cc1cccnc1)Cc1ccccc1Cl (centres undefined) | inconclusive: 4.07% |  |
| Cn1nnnc1Sc1ncnc2scc(Br)c12 | inconclusive: -6.11% |  |
| CCN(CC)c1ccc(NC(=O)C(C)C)cc1 | inconclusive: 0.229% |  |
| Cc1ccc(C(=O)n2c(N)nc3ccccc32)cc1 |  | inconclusive: 1.58 µM [falling, partial curve, poor fit] |
| CN(C(=O)COC(=O)CSc1ccc([N+](=O)[O-])cc1)c1ccccc1 | inconclusive: -18.6% |  |
| Clc1ccc(Cn2ncc3c(N4CCCCC4)ncnc32)cc1 | inactive |  |
